Laboratory results: EP3868394A1 (PAUL SCHERRER INSTITUT, priority 2020, dated 2021)

Experiment: general procedure: Fmoc solid-phase peptide synthesis; rink amide MBHA LL resin; HATU, DIPEA
Settings: whole synthesis

## DOTA-(DGlu)5-DGlu-Ala-Tyr-Ψ[Tz]-Gly-Trp-Nle-Asp-Phe-NH2
Scale 0.032 mmol
  final purity (method not given): 98.1%
  isolated yield: 19.6%

## DOTA-(DGlu)5-DGlu-Ψ[Tz]-Ala-Tyr-Ψ[Tz]-Gly-Trp-Nle-Asp-Phe-NH2
Scale 0.046 mmol
  final purity (method not given): > 99%
  isolated yield: 11.5%

## DOTA-DGlu-Ala-Tyr-Ψ[Tz]-Gly-Trp-Nle-Asp-Phe-NH2
Scale 0.041 mmol
  final purity (method not given): > 99%
  isolated yield: 13.9%

## DOTA-DGlu-Ψ[Tz]-Ala-Tyr-Ψ[Tz]-Gly-Trp-Nle-Asp-Phe-NH2
Scale 0.0528 mmol
  final purity (method not given): 97.9%
  isolated yield: 10.1%

## DOTA-DGlu-Ψ[Tz]-Ala-Ψ[Tz]-Tyr-Ψ[Tz]-Gly-Trp-Nle-Asp-Phe-NH2
Scale 0.037 mmol
  final purity (method not given): > 99%
  isolated yield: 16.1%
